Article PMC7177724

Amino acid sequences for entries named in this document (tags omitted).
UniProt P26196: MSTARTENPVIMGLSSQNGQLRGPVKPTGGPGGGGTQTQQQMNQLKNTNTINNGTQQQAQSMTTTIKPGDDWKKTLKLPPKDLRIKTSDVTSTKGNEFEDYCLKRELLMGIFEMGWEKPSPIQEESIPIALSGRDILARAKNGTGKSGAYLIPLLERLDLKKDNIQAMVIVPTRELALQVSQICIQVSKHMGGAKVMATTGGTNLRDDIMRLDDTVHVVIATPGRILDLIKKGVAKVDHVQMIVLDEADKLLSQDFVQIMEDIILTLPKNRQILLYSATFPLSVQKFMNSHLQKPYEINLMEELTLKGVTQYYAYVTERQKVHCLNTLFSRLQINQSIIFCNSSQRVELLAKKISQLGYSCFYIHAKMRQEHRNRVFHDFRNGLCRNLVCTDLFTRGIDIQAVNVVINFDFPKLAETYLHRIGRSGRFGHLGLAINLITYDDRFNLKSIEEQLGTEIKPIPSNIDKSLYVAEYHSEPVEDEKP
UniProt P67809: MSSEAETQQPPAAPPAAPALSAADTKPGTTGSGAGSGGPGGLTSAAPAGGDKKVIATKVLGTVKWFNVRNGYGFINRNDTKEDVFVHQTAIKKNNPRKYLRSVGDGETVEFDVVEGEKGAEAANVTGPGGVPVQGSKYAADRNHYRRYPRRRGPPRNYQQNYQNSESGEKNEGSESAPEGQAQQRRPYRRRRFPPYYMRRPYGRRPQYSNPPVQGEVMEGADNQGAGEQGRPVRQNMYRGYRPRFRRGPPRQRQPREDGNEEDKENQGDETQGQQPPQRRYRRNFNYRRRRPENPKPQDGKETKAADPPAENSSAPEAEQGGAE
UniProt Q99700: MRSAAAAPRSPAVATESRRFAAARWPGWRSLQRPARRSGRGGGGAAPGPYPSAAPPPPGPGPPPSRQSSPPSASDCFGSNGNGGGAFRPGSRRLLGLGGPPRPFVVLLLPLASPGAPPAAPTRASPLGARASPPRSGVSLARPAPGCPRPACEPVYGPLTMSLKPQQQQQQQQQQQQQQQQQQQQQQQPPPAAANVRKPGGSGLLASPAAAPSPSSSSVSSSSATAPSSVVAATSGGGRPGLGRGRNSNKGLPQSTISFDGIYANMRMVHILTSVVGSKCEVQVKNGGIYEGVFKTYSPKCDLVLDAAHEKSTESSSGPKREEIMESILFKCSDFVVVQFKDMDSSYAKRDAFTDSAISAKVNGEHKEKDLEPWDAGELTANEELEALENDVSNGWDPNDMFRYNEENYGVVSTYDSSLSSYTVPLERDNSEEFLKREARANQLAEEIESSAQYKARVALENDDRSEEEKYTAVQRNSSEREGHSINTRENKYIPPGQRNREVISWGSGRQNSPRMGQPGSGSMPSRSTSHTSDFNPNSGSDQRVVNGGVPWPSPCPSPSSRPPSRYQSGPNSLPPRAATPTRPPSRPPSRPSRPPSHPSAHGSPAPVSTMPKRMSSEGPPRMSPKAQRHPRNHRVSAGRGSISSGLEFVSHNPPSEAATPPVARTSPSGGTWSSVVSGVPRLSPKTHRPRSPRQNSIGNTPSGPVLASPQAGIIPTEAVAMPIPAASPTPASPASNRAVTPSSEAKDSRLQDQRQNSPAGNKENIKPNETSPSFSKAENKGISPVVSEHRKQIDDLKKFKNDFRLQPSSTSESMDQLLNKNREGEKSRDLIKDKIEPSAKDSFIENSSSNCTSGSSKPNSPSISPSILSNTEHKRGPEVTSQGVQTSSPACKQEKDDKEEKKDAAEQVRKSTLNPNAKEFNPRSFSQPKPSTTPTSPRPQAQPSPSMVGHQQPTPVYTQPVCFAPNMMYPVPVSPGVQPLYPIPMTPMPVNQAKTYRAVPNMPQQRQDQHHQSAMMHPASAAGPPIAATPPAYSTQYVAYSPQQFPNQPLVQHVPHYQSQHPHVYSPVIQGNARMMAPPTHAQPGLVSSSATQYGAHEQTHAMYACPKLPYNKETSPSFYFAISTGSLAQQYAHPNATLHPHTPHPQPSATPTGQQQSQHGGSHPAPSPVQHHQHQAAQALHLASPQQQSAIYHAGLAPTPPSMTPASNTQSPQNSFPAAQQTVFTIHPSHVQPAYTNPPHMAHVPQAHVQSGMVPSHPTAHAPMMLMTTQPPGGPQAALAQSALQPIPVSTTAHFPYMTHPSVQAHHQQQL

Assays:
[1] = molecular target: DDX6 helicase (human (endogenous in hASCs)) (UniProt P26196); experiment: affinity purification with mass spectrometry; initial test of the protocol: endogenous DDX6 immunoprecipitated from hASC extract with anti-DDX6 (MBL PD009) and protein A Dynabeads; variations with or without precleaning, extraction with denaturing buffer or TRIzol; lysis buffer with RNase inhibitor; compared with input and flow-through
[2] = molecular target: DDX6 helicase (human (endogenous in hASCs)) (UniProt P26196); experiment: affinity purification with mass spectrometry; endogenous DDX6 immunoprecipitated with anti-DDX6 (MBL PD009) and protein A Dynabeads after precleaning, TRIzol extraction; hASCs not induced or induced to adipogenesis or osteogenesis for 24 h; lysis buffer with 1% NP-40 and RNase inhibitor; washes up to 500 mM NaCl and 2 M urea; proteins found on precleaning beads removed; two donors, two technical replicates

| binding [1] | binding [2] | Substance |
| --- | --- | --- |
| binds | binds | YBX1 (from UniProt P67809 1-324) |
| binds | binds | ATXN2 (from UniProt Q99700 1-1313) |

No constants are given. Whether binding was seen depends on the method and setting. In cells and extracts the contact can be indirect. These calls come from enrichment with a bait or labelling near it, and not all partners need be listed.
